# Library screen at single concentrations

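Growth of Mycobacterium tuberculosis over 3 days (7H9 medium with glucose and tyloxapol); the read-out is not stated. Compounds at 500 µM. Higher reads as more growth inhibition (inferred: compounds with an IC50 in retests scored well above the rest). Size under these conditions: about 18,000 compounds, about 1,400 of them at 50% or above in at least one test.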

Values are the deposited “Percent Effect”, in %. The controls that fix the scale are not given in the record; negative values are as filed. Compounds were drawn at random from those tested, without regard to their results.

compound	percent effect
CC(C)(C)OC(=O)N1CCOC(CO)C1 (stereo not drawn)	-4.125
CCCC(=O)N(C)C1CCN(C)CC1	-4.928
CCCNC(=O)Nc1ccc(CN2CCOCC2)cc1	2.513
CN1CCC(NCCC2CCCO2)CC1 (stereo not drawn)	-14.87
CC1(C)CNC(=O)c2nc(CC3(O)CCCC3)[nH]c2C1	-0.8495
NC1CSCc2c(F)cccc21 (stereo not drawn)	0.3876
CO[C@@H](C(=O)NCCC1=CCOCC1)c1ccccc1	15.93
NC1CCCN(c2cc(N3CCOCC3)ncn2)C1 (stereo not drawn)	19.02
CC(C)CCNC(=O)c1ccccc1S(C)(=O)=O	2.287
COc1ccccc1NC(=O)NC1CCN(C)CC1	7.353
CN(C(=O)CSCCN1CCOCC1)C1CC1	-6.71
Cc1noc(NC(=O)c2ccc(C(F)(F)F)nc2C)n1	91.31
CCOC(=O)c1cc(C(=O)OCC)n(C)n1	-2.257
CCOCCC(=O)N1C[C@H](C(C)C)[C@@H](N)C1	7.648
OCCNC1(c2ccc(Br)cc2)CCOCC1	15.02
CC1CCN(CCNC(=O)Nc2ncnn2C)CC1	-22.71
Cn1cc(Br)c(=O)c(NC(=O)c2ccc(O)cc2F)c1	9.262
N#CC1(C(=O)NCc2ccc(O)c(F)c2)CCCC1	27.91
CCO[C@H]1COC[C@@H]1NC(=O)c1occc1C	0.2558
Nc1ncccc1CN1CCc2ccccc2CC1	0.9669
CC(C)[C@@H](CO)NCC(=O)NC1(C#N)CCCCC1	0.09311
O=C1CN(Cc2ncc[nH]2)CCN1C1CCCC1	8.425
CCCn1cc(CNC(=O)c2cn(CCN)nn2)cn1	12.79
N[C@H]1CN(C(=O)COCc2ccccc2)C[C@@H]1C1CC1	17.08
COc1ccc(C)c(NC(=O)CNC(=O)C2CC2)c1	-0.5676
CCc1nc(CN2CCCN(C(C)=O)CC2)cs1	21.69
CC(CCc1ccc(O)cc1)NC1(CO)CC1 (stereo not drawn)	57.9
CCCN1CCC(NCC(O)c2ccco2)CC1 (stereo not drawn)	-7.058
Cc1nc(CN2CCC[C@H]2C(=O)N2CCOCC2)cs1	-10.3
CSCc1ccc(C(=O)NC(C)c2nc(C)c[nH]2)o1 (stereo not drawn)	22.86
C1CC(OCCN2CCOCC2)CCN1	3.178
Cc1cnn(CC(C)NCCS(C)(=O)=O)c1 (stereo not drawn)	1.555
NS(=O)(=O)c1cccc(Cl)c1Br	15.45
O=C(CNC(CO)C1CC1)Nc1ccccc1 (stereo not drawn)	-10.25
CC(N)C(=O)Nc1cccc(N2CCCC2)c1 (stereo not drawn)	43.94
Cc1cn(CC(=O)NCC[S+](C)[O-])c2ccccc12 (stereo not drawn)	-2.793
CC(O)C(=O)Nc1ccc(S(N)(=O)=O)cc1 (stereo not drawn)	-7.77
CNC(=O)CNC(=O)Nc1c(C)cc(Br)cc1C	-0.3635
COc1cc(OC)cc(C(=O)NCC(C)CN(C)C)c1 (stereo not drawn)	17.99
CCC1c2ccsc2CCN1C(=O)c1ccc(CN)o1 (stereo not drawn)	73.74
Cc1cc(C)n(CC(=O)NCCc2ccc[nH]2)n1	7.942
CCCc1nccn1CC(C)CS(C)(=O)=O (stereo not drawn)	1.74
COCC(C)(NCC(N)=O)c1ccccc1 (stereo not drawn)	-9.532
CN1C(=O)CCN(S(C)(=O)=O)c2ccccc21	-14.81
Cc1ccc(C2CNCCO2)c(C)c1 (stereo not drawn)	40.97
COc1cccc(Cl)c1Cn1cc(Cl)c(=O)[nH]c1=O	-11.2
COc1ccc(C2CCCN2CC(N)=O)cc1 (stereo not drawn)	7.761
Cn1cncc1CN1CC[C@@]2(O)CCCC[C@H]2C1	0.4446
COc1ncc(N)c(C)c1Br	-41.97
O=C(NCC1CCS(=O)(=O)C1)c1cc2ccccc2[nH]1 (stereo not drawn)	11.35
NCCS(=O)(=O)N1CCCc2ccccc21	27.64
Cc1nc(C)c(C(=O)N2CCCC3(CCOC3)C2)s1 (stereo not drawn)	-9.236
O=C(CCn1nc2ccccn2c1=O)N1CCNCC1	22.54
CC(=O)Nc1ccc(C(=O)CSc2nnc[nH]2)cc1	40.16
COc1ccc(OC)c(NC(=O)COCC(F)(F)F)c1	66.49
CC(=O)C1CN(C(=O)OC(C)(C)C)CCO1 (stereo not drawn)	1.807
CC(C)CNC(=O)N(C)Cc1cnn(C)c1	-4.251
CN(C)S(=O)(=O)c1cccc2nsnc12	3.747
COCC(C)(C)NC(=O)Cc1cccc(O)c1	13.54
COc1ccc2c(c1)[C@@H](N)CCO2	7.291
CSC(C)C(=O)Nc1ccc(Cl)c(C(=O)N(C)C)c1 (stereo not drawn)	-3.66
Cc1ccsc1C(=O)N(C)C	-6.095
Cc1n[nH]c(SCCNC(=O)CC2C=CS(=O)(=O)C2)n1 (stereo not drawn)	6.657
O=C(CCC(F)(F)F)N[C@@H]1c2ccccc2C[C@@H]1O	35.11
O=C(NCc1cc[nH]n1)N1CCc2sccc2C1	17.51
O=C(c1ccc(Br)c(O)c1)N1CCCC1CCCO (stereo not drawn)	16.57
Cc1cc(CNC(=O)C2CCCNCC2)n(C)n1 (stereo not drawn)	1.573
CNC(=O)NCc1ccc(CS(=O)(=O)NC)cc1	2.47
O=C(Cc1cccs1)NCC1CCOCC1	18.73
CC(C)C(C)C(=O)NCCc1cncn1C (stereo not drawn)	1.347
Cc1c(Br)c(C(=O)NC(C)C)nn1C	24.52
OCc1cc2n(n1)CCCN(Cc1ccoc1)C2	14.05
CCCC(NS(N)(=O)=O)c1ccc(F)cc1F (stereo not drawn)	36.01
C[C@@]1(N)C[C@H]1c1ccccc1	18.68
OC(CNC1CC1)c1ccc(F)cc1 (stereo not drawn)	4.503
COC(CN)C1CC1 (stereo not drawn)	7.867
CCNC(=O)C1CCN(Cc2cc(C)no2)CC1	1.978
COC(=O)CC(NC(=O)c1cc(C)n[nH]1)C1CC1 (stereo not drawn)	12.97
Cc1cccc(NC(=O)NC2CCN(C)CC2)c1	12.91
N#CC1(C(=O)Nc2cc(C(N)=O)ccc2Cl)CCCC1	0.4694
O=C(NCc1cccc(Cn2cncn2)c1)C1CC1	8.761
C[C@@H]1CN(C(=O)CCCc2cn[nH]c2)C[C@]1(C)O	-4.789
COc1cc(C(=O)N[C@@H]2CC[C@@H](N)C2)ccc1F	37.19
CN(CCC#N)C(=O)CSc1ccc2c(c1)OCCO2	38.12
CN(C)CCOc1ccccc1CN	50.95
CCCn1ccnc1-c1nc2c([nH]1)CCCNC2=O	-11.23
OC[C@H]1CCCCN1CC(O)COCc1ccco1 (stereo partly drawn)	6.282
N#Cc1ccc(NC(=O)Cn2ccnc2)cc1	50.63
CCSCC(=O)NCCCc1csc(N)n1	2.417

The first 7 entries again:

Result for CC(C)(C)OC(=O)N1CCOC(CO)C1 (stereo not drawn) was -4.125%.
Result for CCCC(=O)N(C)C1CCN(C)CC1 was -4.928%.
Result for CCCNC(=O)Nc1ccc(CN2CCOCC2)cc1 was 2.513%.
Result for CN1CCC(NCCC2CCCO2)CC1 (stereo not drawn) was -14.87%.
Result for CC1(C)CNC(=O)c2nc(CC3(O)CCCC3)[nH]c2C1 was -0.8495%.
Result for NC1CSCc2c(F)cccc21 (stereo not drawn) was 0.3876%.
Result for CO[C@@H](C(=O)NCCC1=CCOCC1)c1ccccc1 was 15.93%.

Source: ChEMBL document CHEMBL3988442, “University of Dundee, Small-Polar-MMV Screening Library” (2021).